Results taken from PubChem BioAssay AID504467 (National Center for Advancing Translational Sciences (NCATS), 2011).
Screen size: about 330,000 compounds; about 7,700 (2.3%) were called active. This list was built around the results that the source calls inconclusive (neither active nor inactive); the mix of calls is not that of the screen. Calls follow the shape of the dose curve; as a rule, active = well fitted inhibition curve with a large enough effect; inconclusive = small, poorly fitted or top-dose-only effect, or effect the other way; inactive = flat fitted curve, though single readings scatter. Potencies of inconclusive entries are doubtful fits and often do not repeat.

test: qHTS screen for small molecules that inhibit ELG1-dependent DNA repair in human embryonic kidney (HEK293T) cells expressing luciferase-tagged ELG1; conditions: HEK293T ELG1-luciferase reporter, luminescence, 16 h, DNA damage induced by 5-fluorouridine; activity change, negative = inhibition: at 46.1 µM (top of the series); also: nearly all actives have a fitted effect of over 55% in size
Outline: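 In this reporter screen, reduction of luminescence relative to DMSO vehicle indicated activity. Compounds and 5-fluorouridine were added together to 2,000 cells per well, incubated for 16 hr at 37 °C, then developed with ONE-Glo.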
% is scaled to controls: 0 for no effect and ±100 for the full control effect; potency is read from the fitted curve at half-maximal effect.

SMILES | Potency | activity change, negative = inhibition
CCC1(CC)NC(=O)N(CC(=O)OCC(=O)NC(=O)c2ccc(Cl)cc2)C1=O | inconclusive: 4.61 µM [activator, single point] | –
S=c1nc(COc2ccccc2)[nH]c2ccccc12 | inconclusive: 29.1 µM [activator, single point] | –
COc1ccccc1OCC(=O)Nc1ccc(S(=O)(=O)N(C)c2ccccc2)cc1 | inconclusive: 29.1 µM [inhibitor, single point] | –
CC1=CC(=Nc2c(C)n(C)n(-c3ccccc3)c2=O)C=C(C)C1=O | inconclusive: 29.1 µM [inhibitor, single point] | –
Nc1ccc(O)c(-c2nc3ccccc3s2)c1 | inconclusive: 20.6 µM [activator, partial curve] | –
CC1=CCC2C(=O)N(C(C)c3ccccc3)C(=O)C2C1 (centres undefined) | – | inactive: 4.73%
CC(C)NC(=O)NC(=O)COC(=O)c1cccc(S(=O)(=O)N2CCCCC2)c1 | – | inactive: 11.2%
Cc1c(C(=O)OCC(=O)N2CCC(C)CC2)oc2ccccc12 | inconclusive: 18.3 µM [activator, partial curve] | –
O=C(c1cc2ccccc2o1)N1CCN(S(=O)(=O)c2ccccc2)CC1 | – | inactive: -25.3%
Cc1ccc(OCc2cc(C(=O)N(C)CC3CCOCC3)no2)cc1C | inconclusive: 10.3 µM [activator, partial curve] | –
COc1ccc([C@H]2CC(=O)C=C(c3ccc(C)cc3)C2)cc1OC | inconclusive: 29.1 µM [inhibitor, single point] | –
O=S(=O)(CCc1ccncc1)c1ccc(Cl)cc1 | inconclusive: 29.1 µM [inhibitor, single point] | –
COc1ccc(S(=O)(=O)Cc2ccc(C(=O)NCc3ccccc3)o2)cc1 | – | inactive: 0.0805%
COC(=O)C1=C(C(=O)OC)[C@@H]2N(Cc3ccccc3)c3ccccc3[C@@]23C[C@@H](C(=O)OC)N(C(=O)c2cccs2)C3=N1 | – | inactive: 0.499%
Cc1ccc(NC(=O)C(=O)NN)cc1 | inconclusive: 16.4 µM [activator, partial curve, poor fit] | –
C=CCOc1ccc(-c2n[nH]c(=S)o2)cc1 | inconclusive: 14.6 µM [activator, partial curve, poor fit] | –
Cc1ccc(O)c(CCc2ccccc2)n1 | inconclusive: 25.9 µM [activator, single point] | –
COc1ccc(CC(=O)OCC(=O)Nc2cc(Cl)ccc2C)cc1 | – | inactive: 7.83%
COc1ccc(NC(=O)CSc2nnc(NC(=O)c3ccco3)s2)cc1OC | inconclusive: 20.6 µM [activator, single point] | –
CC(C)(C)OC(=O)N1CCC[C@H]1c1nnc(SCC(=O)Nc2cccc(Cl)c2)o1 | – | inactive: -8%
CCOc1ccc(-c2nc(C)c(C(C)=O)n2O)cc1 | inconclusive: 13 µM [activator, partial curve] | –
O=C1C=C(c2ccoc2)N2CCC[C@H]2C1 | inconclusive: 25.9 µM [activator, single point] | –
CCOC(=O)C1CCCN(C(=O)c2cc3cc(Br)ccc3oc2=O)C1 (centres undefined) | – | inactive: 13%

SMILES | Potency | activity change, negative = inhibition
COC(=O)CSC1=C(C#N)C(c2ccccc2F)CC(=O)N1 (centres undefined) | – | inactive: -15.2%
Cc1ccc2nc(-c3cccc(SC4CCCCC4)c3)c(NCc3ccccc3)n2c1 | active: 25.9 µM | –
Cn1cnnc1SCC(=O)Nc1ccc2nc(SCc3ccccc3)sc2c1 | inconclusive: 2.06 µM [activator, partial curve] | –
Cc1ccc(NCc2nc3ccccc3n2C)c(C)c1 | inconclusive: 2.91 µM [activator, partial curve] | –
CN(C)c1ncnc2sc(-c3ccccc3)cc12 | inconclusive: 23.1 µM [activator, partial curve, poor fit] | –
S=C1Cc2ccccc2N1 | inconclusive: 25.9 µM [inhibitor, single point] | –
Cc1ccc(NC(=O)C2CCN(S(=O)(=O)c3ccc4c(c3)NC(=O)CO4)CC2)cc1 | – | inactive: -3.53%
O=C(OCN1C(=O)c2ccccc2C1=O)c1ccc(Cl)nc1 | – | inactive: -2.88%
COc1ccccc1OCCNC(=O)c1cccs1 | inconclusive: 18.4 µM [activator, single point] | –
Cc1nc(N2CCCCCC2)c2ccccc2n1 | inconclusive: 25.9 µM [inhibitor, single point] | –
COc1ccc(C)cc1NC(=O)CCc1c(C)nn(-c2ccc(N3CCCCC3)nn2)c1C | inconclusive: 29.1 µM [inhibitor, single point] | –
Cc1csc(NC(=O)CCn2c(=O)sc3ccccc32)n1 | inconclusive: 18.4 µM [activator, partial curve, poor fit] | –
CC(C)c1ccc(NC(=O)NC(C)c2ccc3c(c2)OCO3)cc1 (centres undefined) | inconclusive: 32.6 µM [inhibitor, partial curve, poor fit] | –
O=C(NC1CCCN(Cc2ccccc2F)C1)c1cccc(N2CCCC2=O)c1 (centres undefined) | inconclusive: 20.6 µM [inhibitor, partial curve, poor fit] | –
COc1ccccc1C(=O)COC(=O)c1ccc(Cl)nc1 | inconclusive: 18.3 µM [activator, partial curve, poor fit] | –
CCC(C)Sc1cc(-c2nc3ccccn3c2NC2CCCCC2)ccc1OC (centres undefined) | inconclusive: 8.91 µM [inhibitor, single point] | –
CCOc1ccccc1N(CC(=O)N(C)Cc1ccccc1)S(=O)(=O)c1ccccc1 | inconclusive: 20.6 µM [activator, partial curve, poor fit] | –
COc1ccc(CN=C2NC(=O)CC(C(=O)Nc3ccc(F)cc3)S2)cc1 (centres undefined) | – | inactive: -13.3%
NNC(=S)Nc1ccc(Cl)cc1 | – | inactive: 6.12%
CC(C)N(C(=O)[C@H]1C[C@H](CC(=O)NCC23CC4CC(CC(C4)C2)C3)C(=O)N2CCc3c([nH]c4cc(-c5ccco5)ccc34)[C@]12C)C(C)C | – | inactive: -17.4%
Cn1c(-c2ccccc2)c(/C=N/NC(=O)c2cccnc2)c2ccccc21 | inconclusive: 6.51 µM [activator, single point] | –
C/C(=N\NC(=O)c1cccs1)c1cccnc1 | inconclusive: 16.4 µM [activator, partial curve] | –
Cc1cccc(OCC(=O)NCc2n[nH]c(=O)c3ccccc23)c1 | inconclusive: 11.6 µM [activator, partial curve, poor fit] | –

SMILES | Potency | activity change, negative = inhibition
CCCCCCN(C(=O)CCCCCN1C(=O)NC(c2ccc(-c3ccccc3)cc2)C(C(=O)OCc2ccccc2)=C1C)C(C(=O)NCCCC)c1ccccn1 (centres undefined) | inconclusive: 18.3 µM [inhibitor, partial curve] | –
O=C(NNc1cccc(Cl)n1)Nc1cccc(Cl)c1 | inconclusive: 20.6 µM [inhibitor, partial curve, poor fit] | –
COC(=O)c1ccc(Oc2nc(NC(C)C)nc(SC)n2)cc1 | inconclusive: 29.1 µM [inhibitor, single point] | –
O=C(CCc1ccccc1)N=C1SC2CS(=O)(=O)CC2N1c1ccccc1F (centres undefined) | inconclusive: 16.4 µM [activator, partial curve, poor fit] | –
COc1cc(/C=N/NC(=O)c2ccccc2)ccc1OS(=O)(=O)c1ccccc1 | inconclusive: 29.1 µM [inhibitor, single point] | –
c1ccc2c(Nc3nnc(-c4ccncc4)s3)cccc2c1 | inconclusive: 6.51 µM [activator, single point] | –
Cc1ccccc1S(=O)(=O)N(CC(O)CN1CCCCC1)c1ccccc1 (centres undefined) | inconclusive: 5.17 µM [activator, single point] | –
Cc1c(C(=O)N2CCN(Cc3ccc4c(c3)OCO4)CC2)sc2ncnc(N3CCN(c4ccccc4)CC3)c12 | active: 4.61 µM | –
CCOc1ccc(S(=O)(=O)NCCC(=O)NCC(c2ccc(OC)cc2)N2CCCCC2)cc1 (centres undefined) | inconclusive: 6.51 µM [activator, single point] | –
CCc1cc2c(C)ccc(C)c2nc1SCC(=O)Nc1c[nH]c(=O)[nH]c1=O | – | inactive: 18.2%
CCN(CC)CCNc1ccc(CO)c2sc3ccccc3c(=O)c12 | inconclusive: 20.6 µM [inhibitor, partial curve, poor fit] | –
CCOc1ccccc1NC(C)C(=O)Nc1cc(C(F)(F)F)ccc1N1CCOCC1 (centres undefined) | – | inactive: -10.6%
O=C(CCCc1c[nH]c2ccccc12)N1CCOCC1 | inconclusive: 18.4 µM [activator, partial curve, poor fit] | –
NS(=O)(=O)c1ccc(CCNC(=S)Nc2ccccc2)cc1 | – | inactive: -10.8%
CC(/C=N/NC(=O)c1cccc(F)c1)=C\c1ccccc1 | inconclusive: 2.06 µM [activator, partial curve] | –
CC1Cc2cc(-c3csc(NC(=O)Cc4cccs4)n3)ccc2N1S(C)(=O)=O (centres undefined) | active: 4.61 µM | –
N#Cc1nc(-c2ccc(OCc3ccccc3)cc2)oc1NCCCn1ccnc1 | inconclusive: 18.4 µM [inhibitor, single point] | –
O=C(O)c1ccc(N2CCCCC2)cc1O | inconclusive: 20.6 µM [activator, single point] | –
COc1ccc(CN(C)C(=O)c2ccccc2Sc2ccccc2C#N)c(OC)c1 | – | inactive: -13.2%
Cc1ccc(S(=O)(=O)/N=C2/NC(=O)/C(=C/c3cccnc3)S2)cc1 | inconclusive: 25.9 µM [activator, partial curve, poor fit] | –
CC1CCc2sc(C(=O)NNC(=S)NC3CC3)cc2C1 (centres undefined) | inconclusive: 20.6 µM [activator, single point] | –
Cc1ccc(NC(=O)CSc2nc3ccccc3nc2N2CCOCC2)c(C)c1 | – | inactive: -1.95%
CCOc1ccc(CCNC(=O)CS(=O)Cc2nc(-c3ccc(OC)c(OC)c3)oc2C)cc1OCC (centres undefined) | inconclusive: 16.4 µM [inhibitor, single point] | –
